Reference: patent publication US20030175885A1 (REGEN BIOTECH, published 2003)
Results are given in words; binding and its absence hold for the method and conditions named. Binding can be weak; no strength is given.

Amino acid sequences for entries named in this document (tags omitted). A change or cut given only in a name is not applied to a line headed by its entry.
UniProt P26006: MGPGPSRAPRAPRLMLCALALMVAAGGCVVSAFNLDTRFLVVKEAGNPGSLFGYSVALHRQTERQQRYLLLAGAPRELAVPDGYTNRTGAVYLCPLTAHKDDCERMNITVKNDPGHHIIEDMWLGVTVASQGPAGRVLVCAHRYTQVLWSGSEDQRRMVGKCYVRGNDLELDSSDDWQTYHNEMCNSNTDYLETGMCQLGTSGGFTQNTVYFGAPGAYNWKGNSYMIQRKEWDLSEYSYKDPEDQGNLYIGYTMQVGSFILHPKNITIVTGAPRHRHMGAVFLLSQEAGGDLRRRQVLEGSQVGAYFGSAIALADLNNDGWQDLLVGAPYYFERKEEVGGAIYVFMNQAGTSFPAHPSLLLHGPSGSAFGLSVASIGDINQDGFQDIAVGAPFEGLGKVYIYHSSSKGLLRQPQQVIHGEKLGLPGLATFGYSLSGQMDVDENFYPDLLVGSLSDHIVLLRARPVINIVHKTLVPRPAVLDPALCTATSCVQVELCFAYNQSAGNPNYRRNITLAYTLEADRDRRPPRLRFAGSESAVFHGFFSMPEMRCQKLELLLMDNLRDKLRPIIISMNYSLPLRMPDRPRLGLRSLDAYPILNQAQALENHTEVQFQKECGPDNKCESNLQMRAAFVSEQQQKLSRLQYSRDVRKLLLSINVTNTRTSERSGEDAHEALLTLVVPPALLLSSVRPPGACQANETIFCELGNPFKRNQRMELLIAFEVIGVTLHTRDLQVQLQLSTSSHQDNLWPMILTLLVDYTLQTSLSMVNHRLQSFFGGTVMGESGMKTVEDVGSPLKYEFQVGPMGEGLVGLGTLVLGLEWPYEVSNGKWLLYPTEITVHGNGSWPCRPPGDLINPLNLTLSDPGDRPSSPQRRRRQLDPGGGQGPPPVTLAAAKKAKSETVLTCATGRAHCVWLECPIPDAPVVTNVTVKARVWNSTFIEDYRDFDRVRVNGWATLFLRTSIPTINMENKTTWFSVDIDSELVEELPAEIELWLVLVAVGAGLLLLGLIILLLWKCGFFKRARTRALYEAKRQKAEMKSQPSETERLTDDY
UniProt Q15582: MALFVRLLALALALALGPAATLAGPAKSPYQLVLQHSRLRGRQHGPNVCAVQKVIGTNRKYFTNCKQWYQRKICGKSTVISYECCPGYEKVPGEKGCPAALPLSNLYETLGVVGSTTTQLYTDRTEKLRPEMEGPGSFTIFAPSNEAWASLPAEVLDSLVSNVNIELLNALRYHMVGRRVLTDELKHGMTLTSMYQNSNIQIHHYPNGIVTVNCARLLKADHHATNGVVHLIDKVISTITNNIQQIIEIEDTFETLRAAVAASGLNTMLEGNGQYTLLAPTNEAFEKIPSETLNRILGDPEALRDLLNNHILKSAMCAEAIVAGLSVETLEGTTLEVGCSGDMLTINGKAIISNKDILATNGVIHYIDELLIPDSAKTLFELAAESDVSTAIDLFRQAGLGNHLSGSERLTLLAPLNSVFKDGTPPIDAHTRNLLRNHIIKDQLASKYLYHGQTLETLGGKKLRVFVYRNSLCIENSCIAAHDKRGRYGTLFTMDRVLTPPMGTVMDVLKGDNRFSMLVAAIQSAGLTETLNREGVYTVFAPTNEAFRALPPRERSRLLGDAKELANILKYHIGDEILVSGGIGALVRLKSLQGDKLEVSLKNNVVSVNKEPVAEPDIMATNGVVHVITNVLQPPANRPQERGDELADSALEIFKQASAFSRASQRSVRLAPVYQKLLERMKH

What was measured:
[1] = target: T1, α3β1 integrin (UniProt P26006 33-1051; P05556 21-798); assay: HCE cell adhesion, inhibited by function-blocking mAbs against α3 and β1 integrin subunits
T1 construct: whole, on cells; Never used as a purified protein; It is always the receptor on HCE cells in adhesion assays; also called integrin α3β1; functional receptor for βig-h3

[2] = target: T1, α3β1 integrin; assay: HCE cell adhesion to coated domain, suppressed by antibodies against α3 and β1 integrin subunits
[3] = target: T1, α3β1 integrin; assay: HCE cell adhesion to coated domain, inhibited by function-blocking mAbs against α3 and β1 integrin subunits

Measured: binding

recombinant 4th fas-1 domain protein βig-h3 D-IV (from UniProt Q15582)
binds: all assays above

recombinant 2nd fas-1 domain protein βig-h3 D-II (from UniProt Q15582)
binds: all assays above
